According to PubChem BioAssay AID493014 (National Center for Advancing Translational Sciences (NCATS), 2011):
The campaign covered roughly 340,000 compounds. About 170 (0.05%) were called active. Inconclusive results, whose numbers are uncertain, are shown with a selection of clear calls. The call rests on the fitted dose curve; in most records, active means well fitted inhibition curve with a large enough effect in the signal ratio, with a control signal flat (not every such curve was filed as active); inconclusive means small, poorly fitted or top-dose-only effect, or effect the other way, or a change in a side signal; inactive means flat fitted curve, though single readings scatter; the % refers to the signal ratio. Potencies beside an inconclusive call are fits to weak or partial responses and may not hold up.

assay: qHTS Assay to Find Inhibitors of Chronic Active B-Cell Receptor Signaling; details: ABC-DLBCL IkBa-CBG/CBR reporter, luminescence ratio (green luciferase fused to IkBa over red control in TMD8 lymphoma cells), 4 h; activity change, negative = inhibition: at 46.1 µM (top of the series) unless noted;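 on activity change, negative = inhibition: plate controls were basal doxycycline-induced cells for no effect and cells given 10 µM MG132 for full effect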
Summary of the method: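 Compounds up to 46 uM were incubated four hours with TMD8 cells whose green CBG68 luciferase is fused to IkappaBalpha; red CBR luminescence normalised the signal, and concentration-effect curves were fitted to fusion, red and ratio data.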
Potency means the concentration at half of the fitted maximal effect.

| Compound | activity change, negative = inhibition | Potency |
| --- | --- | --- |
| CCc1noc(C)c1C(=O)Nc1ncc(C)s1 | inconclusive: 0.755% | – |
| CC(=O)Nc1ccc2c(c1)C(C)(C)C(C)N2C (stereo unspecified) | inactive: 8.11% | – |
| CCCn1c(SC/C(O)=C(\C#N)c2nc3ccccc3[nH]2)n[nH]c1=O | inconclusive: -28.5% | – |
| O=C(COc1ccc(Cl)cc1)Nc1ccc2c(c1)C(=O)NC2=O | – | inconclusive: 1.78 µM [falling, full curve, poor fit] |
| Nc1c(C(=O)Nc2cccc(F)c2)nnn1-c1ccc2c(c1)OCCO2 | – | inconclusive: 6.31 µM [falling, partial curve] |
| COCc1ccc(C(=O)NC2CC(C)(C)Cc3c2cnn3-c2ccc(C)cc2)o1 (stereo unspecified) | inconclusive: 8.78% | – |
| COC(=O)c1ccc(/C=N/Nc2nc3ccccc3[nH]2)cc1 | inconclusive: -12.9% | – |
| COc1ccc(O)c(C(=O)c2cnc3nc4ccccc4n3c2)c1 | inconclusive: 2.16% | – |
| CCOC(=O)C1CCN(C(=O)C2CCN(S(=O)(=O)c3c(C)noc3C)CC2)CC1 | inconclusive: 6.6% | – |
| CCOc1ccc(OCc2ccc(C(=O)N(CC)CC)cc2)cc1 | inconclusive: -22.5% | – |
| CCC(=O)Nc1cccc(NC(=S)NC(=O)c2ccc(Cl)cc2Cl)c1 | inconclusive: 0.875% | – |
| CCOc1ccc(NC(=O)CN(C)CC(=O)NC(C)c2ccccc2)cc1OCC (stereo unspecified) | inconclusive: 0.793% | – |
| O=c1oc2ccccc2c2c1SC(C(F)(F)F)C2 (stereo unspecified) | inconclusive: -8.46% | – |
| CCN1CCN(C(=O)CS(=O)(=O)Cc2nc(-c3ccc(C)cc3)oc2C)CC1 | inconclusive: 0.979% | – |
| CCN(Cc1nc2cc(OC)c(OC)cc2c(=O)[nH]1)C(=O)c1ccc(S(=O)(=O)N(C)C)cc1 | inactive: -9.25% | – |
| CN(C)c1ccc(CN(C(=O)/C=C/c2ccccc2Cl)C2CCS(=O)(=O)C2)cc1 (stereo unspecified) | inconclusive: -8.86% | – |
| COC(=O)c1cc(NC(=O)Cc2coc3cc(OC)ccc23)cc(C(=O)OC)c1 | inconclusive: -6.87% | – |
| CCOC(=O)Cc1csc(NC(=S)NC(=O)c2ccccc2Br)n1 | – | inconclusive: 18.4 µM [falling, single point] |
| CC(C)C[C@H]1CN=C(Nc2ccccc2)N1CC1CCCCC1 | – | inconclusive: 11.2 µM [falling, partial curve] |
| O=C(Nc1ccc(C(F)(F)F)cc1)c1cccc(-n2cnnn2)c1 | inconclusive: 1.34% | – |
| COCCCNC(=S)NNC(=O)c1cc(-c2cccnc2)nc2ccccc12 | inactive: -0.78% | – |

Rewritten bar-delimited: 16 of the compounds above
Compound | activity change, negative = inhibition | Potency
COCc1ccc(C(=O)NC2CC(C)(C)Cc3c2cnn3-c2ccc(C)cc2)o1 (stereo unspecified) | inconclusive: 8.78% | –
COC(=O)c1ccc(/C=N/Nc2nc3ccccc3[nH]2)cc1 | inconclusive: -12.9% | –
COc1ccc(O)c(C(=O)c2cnc3nc4ccccc4n3c2)c1 | inconclusive: 2.16% | –
CCOC(=O)C1CCN(C(=O)C2CCN(S(=O)(=O)c3c(C)noc3C)CC2)CC1 | inconclusive: 6.6% | –
CCOc1ccc(OCc2ccc(C(=O)N(CC)CC)cc2)cc1 | inconclusive: -22.5% | –
CCC(=O)Nc1cccc(NC(=S)NC(=O)c2ccc(Cl)cc2Cl)c1 | inconclusive: 0.875% | –
CCOc1ccc(NC(=O)CN(C)CC(=O)NC(C)c2ccccc2)cc1OCC (stereo unspecified) | inconclusive: 0.793% | –
O=c1oc2ccccc2c2c1SC(C(F)(F)F)C2 (stereo unspecified) | inconclusive: -8.46% | –
CCN1CCN(C(=O)CS(=O)(=O)Cc2nc(-c3ccc(C)cc3)oc2C)CC1 | inconclusive: 0.979% | –
CCN(Cc1nc2cc(OC)c(OC)cc2c(=O)[nH]1)C(=O)c1ccc(S(=O)(=O)N(C)C)cc1 | inactive: -9.25% | –
CN(C)c1ccc(CN(C(=O)/C=C/c2ccccc2Cl)C2CCS(=O)(=O)C2)cc1 (stereo unspecified) | inconclusive: -8.86% | –
COC(=O)c1cc(NC(=O)Cc2coc3cc(OC)ccc23)cc(C(=O)OC)c1 | inconclusive: -6.87% | –
CCOC(=O)Cc1csc(NC(=S)NC(=O)c2ccccc2Br)n1 | – | inconclusive: 18.4 µM [falling, single point]
CC(C)C[C@H]1CN=C(Nc2ccccc2)N1CC1CCCCC1 | – | inconclusive: 11.2 µM [falling, partial curve]
O=C(Nc1ccc(C(F)(F)F)cc1)c1cccc(-n2cnnn2)c1 | inconclusive: 1.34% | –
COCCCNC(=S)NNC(=O)c1cc(-c2cccnc2)nc2ccccc12 | inactive: -0.78% | –

Continuation:

| Compound | activity change, negative = inhibition | Potency |
| --- | --- | --- |
| O=C(CSc1nc(Cc2ccccc2)nc2ccccc12)c1ccc2c(c1)OCCO2 | inconclusive: 3.86% | – |
| CCc1c(C)sc(NC(=S)Nc2cccnc2)c1C(=O)OC | – | inconclusive: 0.398 µM [rising, full curve] |
| Cc1ccc(Sc2ncccc2C(=O)NCc2cc([N+](=O)[O-])ccc2O)c(C)c1 | – | inconclusive: 14.1 µM [falling, single point] |
| CCN1C(=O)[C@H]2[C@@H](c3ccc(C)cc3)N3C(=O)N(c4cccc(Br)c4)C(=O)[C@@]3(Cc3ccccc3)[C@H]2C1=O | inconclusive: 0.286% | – |
| O=C(Nc1cccc(-n2cccn2)c1)C1CCCN(Cc2cc3ccccc3[nH]2)C1 (stereo unspecified) | – | inconclusive: 0.794 µM [rising, full curve] |
| C[C@@H]1CN(C2CCN(Cc3nc(C(c4ccccc4)c4ccccc4)no3)CC2)C[C@H](C)O1 | inactive: -12.3% | – |
| O=C(COC(=O)/C=C/C(=O)N1CCN(c2ccccc2)CC1)NCc1ccc(F)cc1 | inactive: 0.851% | – |
| N#Cc1c(C(F)(F)F)cc(-c2ccc(F)cc2)nc1SCC(=O)O | inactive: -3.68% | – |
| COc1ccc(N(CC(=O)N/N=C/c2ccccc2F)S(=O)(=O)c2ccccc2)cc1 | – | inconclusive: 17.8 µM [falling, partial curve, poor fit] |
| CCN(CC(=O)Nc1ccc(NC(C)=O)cc1)C(=O)c1ccccc1SCC(=O)N1CCCC1 | inactive: 5.87% | – |
| COc1ccc(NC(=O)Nc2cccc3ccccc23)cc1S(N)(=O)=O | – | inconclusive: 2.82 µM [falling, full curve, poor fit] |
| Nc1cc(N)nc(SCCOc2ccccc2F)n1 | inconclusive: 14.2% | – |
| Fc1ccc2nc(C3CCCCN3Cc3nc(CC4CC4)no3)[nH]c2c1 (stereo unspecified) | inactive: 3.06% | – |
| O=C(COC(=O)Cc1ccccc1F)Nc1cc(S(=O)(=O)N2CCOCC2)ccc1N1CCCC1 | inconclusive: 6.9% | – |
| Cc1ccc(CNC(=O)Cc2ccc(-c3ccccc3)cc2)cc1 | inconclusive: -11.4% | – |
| CC(C)n1ncc2c(C(=O)O)cc(C3CC3)nc21 | inactive: -1.43% | – |
| Nc1cc(Cl)ccc1Oc1ccc2ccccc2c1 | – | inconclusive: 0.184 µM [rising, full curve] |
| CCCC(=O)OC/C(O)=C(\C#N)c1nc2ccccc2[nH]1 | – | inconclusive: 20 µM [falling, partial curve] |
| Cc1ccccc1NC(=O)C1(NC(=O)c2cccc(N3C(=O)CSC3c3ccccc3)c2)CCCCC1 (stereo unspecified) | inconclusive: -1.26% | – |
| O=C1CC(c2ccc(OCCCCCOc3ccc(C4CC(=O)NC4=O)cc3)cc2)C(=O)N1 (stereo unspecified) | inconclusive: -17.8% | – |
| CSCCC(=O)N1CCC(n2nccc2NC(=O)CCCc2ccccc2)CC1 | inactive: 5.91% | – |

| Compound | activity change, negative = inhibition | Potency |
| --- | --- | --- |
| Fc1ccccc1OCCSc1nnnn1-c1ccccc1 | – | inconclusive: 25.9 µM [falling, single point] |
| CCN(CC)S(=O)(=O)c1cccc(C(=O)OCC(=O)NCc2ccccc2OC)c1 | inconclusive: -0.0989% | – |
| Cc1cccc(N2CCN(C(=O)Cn3c(=O)[nH]c4ccsc4c3=O)CC2C)c1 (stereo unspecified) | – | inconclusive: 20.6 µM [falling, partial curve, poor fit] |
| CCOc1nc(SC(C(C)=O)C(=O)Nc2ccccc2)nc(N(C)C)n1 (stereo unspecified) | – | inconclusive: 18.4 µM [falling, single point] |
| COc1ccccc1N(CC1CO1)S(=O)(=O)c1ccc(C)cc1 (stereo unspecified) | inactive: -7.9% | – |
| O=[N+]([O-])c1ccc(Nc2ccc3ccccc3c2)nc1 | inconclusive: -6.86% | – |
| CCCCOc1ccc(C(=O)NCC(=O)NCC(c2ccc(OC)cc2)N2CCOCC2)cc1 (stereo unspecified) | inconclusive: 0.0407% | – |
| CCCCNC(=S)N(C)/N=C/c1ccc(OCc2ccc(C(=O)OC)cc2)c(OC)c1 | inactive: -22.6% | – |
| CN1CCC(N2CCN(c3cccc(C(F)(F)F)c3)CC2)CC1 | inconclusive: 11.9% | – |
| Cn1c(-c2cccc(Br)c2)cnc1NCc1ccccc1O | inactive: 3.24% | – |
| COc1cc(CN2CCN(Cc3cccc(OC)c3OC)CC2)cc(OC)c1 | inactive: -12.3% | – |
| Cc1ccc(CCNC(=O)c2nnn(-c3cc(C)cc(C)c3)c2N)cc1 | inconclusive: 0.377% | – |
| Cc1ccccc1NC(=O)/C=C/c1ccc([N+](=O)[O-])s1 | – | inconclusive: 23.1 µM [falling, partial curve] |
| CCOC(=O)Cc1csc(NS(=O)(=O)c2ccc3c4c(cccc24)C(=O)N3CC)n1 | inconclusive: 0.104% | – |
| Cc1csc(SCC(=O)Nc2sccc2C#N)n1 | inconclusive: 250% | – |
| CSc1sc(C(=O)Nc2ccc(F)cc2F)c2c1C=CCC2 | – | inconclusive: 12.6 µM [falling, partial curve, poor fit] |
| COc1ccc(-c2cc(C(=O)NCCc3ccc(S(N)(=O)=O)cc3)c3ccccc3n2)cc1 | inconclusive: -0.171% | – |
| CCOc1ccc2nc(NC(=O)CCn3cccc3)sc2c1 | inactive: 8.3% | – |
| COC(=O)c1cc(NC(=O)CSC2=NCCS2)cc(C(=O)OC)c1 | inconclusive: 0.048% | – |
| Cc1cccc(-n2c(C)nc3cc(C(=O)N4CCOCC4)ccc32)c1 | inconclusive: 13.2% | – |
| CCOc1cccc(C(=O)NC(c2ccccc2)C(C)C)c1 (stereo unspecified) | inconclusive: 3.31% | – |

| Compound | activity change, negative = inhibition | Potency |
| --- | --- | --- |
| Cc1ccc2oc(-c3ccccc3)nc2c1 | inconclusive: -0.274% | – |
| Cc1c(NC(=O)c2noc(C(C)C)c2[N+](=O)[O-])c(=O)n(-c2ccccc2)n1C | inconclusive: 10.3% | – |
| C=CCC(CC=C)(NC(=O)c1cccc(C)c1)c1ccccc1 | inactive: 5.87% | – |
| CC(=O)Nc1ccc(Nc2ncnc3c2cnn3-c2cccc(C)c2)cc1 | inconclusive: 9.44% | – |
| CC1CN(C(=O)Nc2cccc(Cl)c2)C2(CCCCCC2)O1 (stereo unspecified) | inconclusive: 14.1% | – |
| COc1ccc(C(O)(CCC(C)C)C(CN2CCOCC2)c2ccccc2)cc1 (stereo unspecified) | inactive: 0.36% | – |
| C=C(C)CN(CC)C(=O)c1ccc(OC2CCN(S(=O)(=O)N(C)C)CC2)cc1 | inconclusive: 3.28% | – |
| COc1ccc(Nc2nc(Cl)nc(Nc3ccc(OC)cc3OC)n2)c(OC)c1 | inconclusive: 1.06% | – |
| CCC1Nc2ncnc(N3CCc4ccccc4C3)c2N(Cc2ccc(Cl)cc2)C1=O (stereo unspecified) | inconclusive: -18.4% | – |
| O=C(NCc1ccco1)C1CCN(c2nc3ccccc3n2Cc2ccc(F)cc2)CC1 | inactive: 19.2% | – |
| CCOC(=O)C1(CCOc2ccccc2)CCN(Cc2cnc(C)s2)CC1 | inconclusive: 4.6% | – |
| COc1ccccc1CCNC(=O)c1cnn2c(C(F)F)cc(C)nc12 | inactive: -8.44% | – |
| COc1ccc(CNC(=O)CN2N=C(c3ccc(Cl)cc3)CCC2=O)cc1 | – | inconclusive: 3.16 µM [falling, single point] |
| N#CCN1C(=S)N=C(Nc2cccc(Cl)c2)C12CCCCC2 | – | inconclusive: 0.631 µM [falling, full curve, poor fit] |
| COCCNC(C(=O)Nc1cc(Cl)cc(Cl)c1)c1ccccc1 (stereo unspecified) | – | inconclusive: 1.3 µM [rising, full curve] |
| CC(C)(C)N1CC(C(=O)Nc2ccc(S(=O)(=O)N3CCCCC3)cc2)CC1=O (stereo unspecified) | inactive: -0.377% | – |
| COc1ccc(C(=O)Nc2nc(C)c3cc4c(cc3n2)OCO4)cc1 | inconclusive: -14.2% | – |
| CCc1ccc2c(CC(=O)Nc3nnc(C4CC4)s3)coc2c1 | inconclusive: 3.76% | – |
